# Some of the results follow.
# Protein sequences, listed by entry. Tags and fused reporters are not part of them. Lines headed by an entry give the natural chain unless they say otherwise; changes in a name come on top.
# UniProt Q9Y6K9, whole entry, looked up: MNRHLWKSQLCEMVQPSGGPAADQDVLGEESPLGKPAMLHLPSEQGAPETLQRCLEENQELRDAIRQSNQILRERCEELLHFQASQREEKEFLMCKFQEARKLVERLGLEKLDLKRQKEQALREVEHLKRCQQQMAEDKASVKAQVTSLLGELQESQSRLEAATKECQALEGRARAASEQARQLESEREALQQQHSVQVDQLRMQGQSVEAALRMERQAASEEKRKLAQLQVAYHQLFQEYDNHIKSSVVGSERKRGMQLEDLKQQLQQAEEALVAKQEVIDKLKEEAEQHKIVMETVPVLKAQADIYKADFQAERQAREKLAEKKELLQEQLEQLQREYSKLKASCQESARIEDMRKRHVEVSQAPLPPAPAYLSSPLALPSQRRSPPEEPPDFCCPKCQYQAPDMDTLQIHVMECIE
# UniProt Q9H0C8: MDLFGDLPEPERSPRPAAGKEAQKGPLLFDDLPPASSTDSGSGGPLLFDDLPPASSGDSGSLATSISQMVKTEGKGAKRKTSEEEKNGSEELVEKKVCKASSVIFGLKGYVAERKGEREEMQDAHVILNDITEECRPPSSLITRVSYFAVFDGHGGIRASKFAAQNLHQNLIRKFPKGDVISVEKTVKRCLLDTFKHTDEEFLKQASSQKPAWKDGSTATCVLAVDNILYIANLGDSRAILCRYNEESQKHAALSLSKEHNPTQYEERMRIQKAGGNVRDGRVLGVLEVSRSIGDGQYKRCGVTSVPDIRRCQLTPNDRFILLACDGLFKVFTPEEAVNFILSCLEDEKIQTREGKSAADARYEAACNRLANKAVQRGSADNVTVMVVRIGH
# UniProt P41252: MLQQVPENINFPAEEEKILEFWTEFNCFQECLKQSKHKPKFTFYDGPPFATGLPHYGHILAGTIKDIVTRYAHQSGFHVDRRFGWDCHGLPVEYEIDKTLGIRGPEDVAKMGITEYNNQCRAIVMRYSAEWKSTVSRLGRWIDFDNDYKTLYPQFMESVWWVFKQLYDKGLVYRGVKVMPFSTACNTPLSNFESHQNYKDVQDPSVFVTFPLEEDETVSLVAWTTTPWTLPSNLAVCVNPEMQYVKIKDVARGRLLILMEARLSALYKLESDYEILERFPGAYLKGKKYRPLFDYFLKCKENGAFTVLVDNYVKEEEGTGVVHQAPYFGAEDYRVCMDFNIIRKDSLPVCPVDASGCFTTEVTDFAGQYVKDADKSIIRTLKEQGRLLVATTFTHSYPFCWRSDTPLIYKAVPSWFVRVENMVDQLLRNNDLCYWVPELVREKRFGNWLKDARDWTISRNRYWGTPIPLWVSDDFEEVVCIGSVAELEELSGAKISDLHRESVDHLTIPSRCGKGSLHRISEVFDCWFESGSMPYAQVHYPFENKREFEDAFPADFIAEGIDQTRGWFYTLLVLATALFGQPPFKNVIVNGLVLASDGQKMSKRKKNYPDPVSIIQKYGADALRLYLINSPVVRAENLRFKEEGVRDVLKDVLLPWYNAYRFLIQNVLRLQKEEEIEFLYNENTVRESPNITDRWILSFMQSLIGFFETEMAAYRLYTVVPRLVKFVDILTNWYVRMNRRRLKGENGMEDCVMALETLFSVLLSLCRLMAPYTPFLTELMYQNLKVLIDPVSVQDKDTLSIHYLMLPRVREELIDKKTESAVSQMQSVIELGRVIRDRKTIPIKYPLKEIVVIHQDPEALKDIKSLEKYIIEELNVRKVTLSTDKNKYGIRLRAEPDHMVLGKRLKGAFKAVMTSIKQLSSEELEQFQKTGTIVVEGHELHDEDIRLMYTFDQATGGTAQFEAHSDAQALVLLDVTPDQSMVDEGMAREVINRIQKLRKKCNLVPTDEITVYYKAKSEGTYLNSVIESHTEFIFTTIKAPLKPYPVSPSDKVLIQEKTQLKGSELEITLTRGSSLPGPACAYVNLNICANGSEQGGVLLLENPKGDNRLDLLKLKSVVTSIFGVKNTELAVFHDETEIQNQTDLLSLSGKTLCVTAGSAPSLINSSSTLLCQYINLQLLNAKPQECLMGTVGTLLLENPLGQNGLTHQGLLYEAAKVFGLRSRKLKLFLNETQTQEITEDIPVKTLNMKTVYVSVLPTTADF
# UniProt P11717, whole entry, looked up: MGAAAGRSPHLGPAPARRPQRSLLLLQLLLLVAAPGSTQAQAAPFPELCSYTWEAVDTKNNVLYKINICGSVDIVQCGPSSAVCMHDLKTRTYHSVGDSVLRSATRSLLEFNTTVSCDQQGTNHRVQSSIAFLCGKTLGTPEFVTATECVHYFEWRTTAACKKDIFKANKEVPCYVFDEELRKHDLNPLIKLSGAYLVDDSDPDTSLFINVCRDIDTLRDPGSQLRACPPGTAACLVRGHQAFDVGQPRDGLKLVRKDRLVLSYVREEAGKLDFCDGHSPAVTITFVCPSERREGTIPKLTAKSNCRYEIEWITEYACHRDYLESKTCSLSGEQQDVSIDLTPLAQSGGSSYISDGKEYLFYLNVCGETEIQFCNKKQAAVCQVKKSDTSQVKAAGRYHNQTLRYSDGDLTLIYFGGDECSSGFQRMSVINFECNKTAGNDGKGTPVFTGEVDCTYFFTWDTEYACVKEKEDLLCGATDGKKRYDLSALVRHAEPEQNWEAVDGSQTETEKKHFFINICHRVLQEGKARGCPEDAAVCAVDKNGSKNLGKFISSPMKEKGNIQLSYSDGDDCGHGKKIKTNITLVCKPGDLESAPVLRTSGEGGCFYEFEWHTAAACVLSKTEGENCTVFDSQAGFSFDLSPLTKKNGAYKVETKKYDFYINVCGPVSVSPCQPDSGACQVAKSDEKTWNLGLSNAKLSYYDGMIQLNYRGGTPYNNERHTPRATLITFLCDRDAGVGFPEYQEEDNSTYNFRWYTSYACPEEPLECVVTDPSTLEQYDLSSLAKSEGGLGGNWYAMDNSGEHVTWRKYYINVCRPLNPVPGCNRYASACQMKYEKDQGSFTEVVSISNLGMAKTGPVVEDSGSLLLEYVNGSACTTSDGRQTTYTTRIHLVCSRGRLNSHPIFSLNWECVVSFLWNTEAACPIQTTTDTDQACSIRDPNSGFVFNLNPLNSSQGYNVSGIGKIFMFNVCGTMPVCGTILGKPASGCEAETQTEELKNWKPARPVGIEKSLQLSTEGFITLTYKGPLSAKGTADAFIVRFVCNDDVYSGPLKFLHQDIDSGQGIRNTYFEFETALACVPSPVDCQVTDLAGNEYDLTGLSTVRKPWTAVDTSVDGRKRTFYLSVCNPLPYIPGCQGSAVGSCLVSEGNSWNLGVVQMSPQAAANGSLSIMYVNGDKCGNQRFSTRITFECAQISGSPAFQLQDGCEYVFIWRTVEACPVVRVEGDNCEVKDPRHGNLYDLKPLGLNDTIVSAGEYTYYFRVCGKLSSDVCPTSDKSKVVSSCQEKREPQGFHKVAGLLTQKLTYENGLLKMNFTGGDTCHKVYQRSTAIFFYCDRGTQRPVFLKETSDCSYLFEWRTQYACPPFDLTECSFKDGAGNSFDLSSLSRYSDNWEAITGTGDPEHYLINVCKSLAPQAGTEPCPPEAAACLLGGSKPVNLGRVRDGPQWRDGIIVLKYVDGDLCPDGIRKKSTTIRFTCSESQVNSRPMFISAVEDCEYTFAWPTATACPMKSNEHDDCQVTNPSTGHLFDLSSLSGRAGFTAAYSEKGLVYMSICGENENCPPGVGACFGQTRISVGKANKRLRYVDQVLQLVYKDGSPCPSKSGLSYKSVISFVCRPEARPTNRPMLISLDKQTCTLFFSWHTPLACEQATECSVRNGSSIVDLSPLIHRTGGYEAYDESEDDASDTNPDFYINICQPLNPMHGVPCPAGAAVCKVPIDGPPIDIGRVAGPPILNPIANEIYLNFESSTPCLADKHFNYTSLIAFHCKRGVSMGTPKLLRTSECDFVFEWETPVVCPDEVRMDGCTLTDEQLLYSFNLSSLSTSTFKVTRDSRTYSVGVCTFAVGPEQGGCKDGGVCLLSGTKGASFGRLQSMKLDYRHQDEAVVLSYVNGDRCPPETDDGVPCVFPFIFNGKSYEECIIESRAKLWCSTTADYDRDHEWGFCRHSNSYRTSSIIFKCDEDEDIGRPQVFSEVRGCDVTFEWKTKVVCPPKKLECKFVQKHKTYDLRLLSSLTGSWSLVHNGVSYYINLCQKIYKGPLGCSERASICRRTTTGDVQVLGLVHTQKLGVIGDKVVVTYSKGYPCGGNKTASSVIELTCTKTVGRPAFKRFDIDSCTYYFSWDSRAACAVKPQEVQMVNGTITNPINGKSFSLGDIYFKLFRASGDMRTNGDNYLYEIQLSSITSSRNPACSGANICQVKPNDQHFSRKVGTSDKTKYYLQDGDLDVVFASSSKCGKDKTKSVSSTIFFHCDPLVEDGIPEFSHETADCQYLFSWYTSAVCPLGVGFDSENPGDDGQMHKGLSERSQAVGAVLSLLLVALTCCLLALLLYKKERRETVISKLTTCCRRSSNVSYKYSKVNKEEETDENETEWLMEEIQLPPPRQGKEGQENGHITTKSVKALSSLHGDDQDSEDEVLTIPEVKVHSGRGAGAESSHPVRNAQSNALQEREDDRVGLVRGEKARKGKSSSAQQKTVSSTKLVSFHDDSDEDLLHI
# UniProt O14732: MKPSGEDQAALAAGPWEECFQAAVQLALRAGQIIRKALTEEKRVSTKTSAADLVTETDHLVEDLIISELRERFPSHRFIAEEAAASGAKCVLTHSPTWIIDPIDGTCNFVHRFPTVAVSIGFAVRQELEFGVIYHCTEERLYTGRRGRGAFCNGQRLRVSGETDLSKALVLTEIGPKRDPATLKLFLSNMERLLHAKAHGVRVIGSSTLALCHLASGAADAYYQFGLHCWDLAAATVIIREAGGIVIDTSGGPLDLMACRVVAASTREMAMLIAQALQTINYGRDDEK
# UniProt P20839, whole entry, looked up: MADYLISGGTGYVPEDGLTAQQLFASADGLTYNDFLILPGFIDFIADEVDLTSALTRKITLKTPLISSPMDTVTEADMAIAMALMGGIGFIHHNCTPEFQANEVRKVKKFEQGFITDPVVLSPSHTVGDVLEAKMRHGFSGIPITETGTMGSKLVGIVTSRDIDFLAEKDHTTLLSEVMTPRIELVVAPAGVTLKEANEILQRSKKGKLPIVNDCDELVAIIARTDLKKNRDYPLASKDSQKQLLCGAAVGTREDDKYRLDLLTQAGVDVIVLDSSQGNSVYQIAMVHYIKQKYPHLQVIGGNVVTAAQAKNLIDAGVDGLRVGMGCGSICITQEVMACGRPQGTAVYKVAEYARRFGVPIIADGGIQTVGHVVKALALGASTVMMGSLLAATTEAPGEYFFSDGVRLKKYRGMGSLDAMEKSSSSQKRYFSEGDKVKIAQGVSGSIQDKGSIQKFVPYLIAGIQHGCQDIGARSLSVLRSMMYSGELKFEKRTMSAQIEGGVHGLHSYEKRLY
# Compound: CC1Cc2ccccc2N1C(=O)C1CCCN(C1)C(=O)CCl (mixture of isomers) [TRIM25 ligand 11 (diastereomer mixture)]
# Assay: probe-labelled cysteine peptide fold change vs DMSO (competition) (log2 fold change); higher = less target engagement (more negative = stronger competition)
# Conditions: THP-1, incubation time: 4 h
# 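Further: competitive chemoproteomic profiling in live THP-1 cells with an iodoacetamide desthiobiotin (IA-DTB) probe, comparing probe-labelled peptide intensities in compound-treated cells against DMSO-treated controls.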
Target,probe-labelled cysteine peptide fold change (10 µM),probe-labelled cysteine peptide fold change (50 µM)
IKBKG_Q9Y6K9_396_RSPPEEPPDFCCPK (UniProt Q9Y6K9),-0.0571,0.135
ILKAP_Q9H0C8_301_CGVTSVPDIR (UniProt Q9H0C8),-0.027,0.0391
IARS_P41252_87_FGWDCHGLPVEYEIDK (UniProt P41252),0.0356,0.0848
IGF2R_P11717_830_YASACQMK (UniProt P11717),-0.0974,-0.00457
IMPA2_O14732_90_CVLTHSPTWIIDPIDGTCNFVHR (UniProt O14732),0.168,0.0794
IMPDH1_P20839_468_FVPYLIAGIQHGCQDIGAR (UniProt P20839),-0.0383,0.188

# Reference: the supplement of paper PMC12067093, “Discovery and optimisation of a covalent ligand for TRIM25 and its application to targeted protein ubiquitination” (Chemical Science, 2025)
